PubChem BioAssay AID652163 (Broad Institute, 2013)
The whole screen tested about 360,000 compounds, of which about 500 (0.14%) were called active. Inconclusive means that the source gave no clear call. Such entries were picked first, then a sample of the others.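 How the source made its calls: active means mean inhibition of at least 70% across replicates, with every replicate also reaching that level; inconclusive means mean inhibition reaches 70% but some replicates fall short; inactive means mean inhibition below 70%.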

Protein sequences, listed by entry. Tags and fused reporters are not part of them.
UniProt P26447, whole entry, looked up: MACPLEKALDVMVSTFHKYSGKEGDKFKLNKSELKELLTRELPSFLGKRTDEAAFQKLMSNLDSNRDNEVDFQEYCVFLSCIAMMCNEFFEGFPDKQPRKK

Target: Protein S100-A4 (Homo sapiens) (UniProt P26447)
Assay: inhibitors of S100A4-myosin IIA peptide binding, primary screen, biochemical, fluorescence polarization, TAMRA-MyoIIA peptide (AID 652163)
Settings: at 10.7 µM, stronger effect = higher value
Summary of the method: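 assay system = human S100A4 monomer with TAMRA-labelled myosin IIA peptide | also added = labelled myosin peptide probe, 5 nM | incubation = 5 min between mix addition and reading | control set = DMSO and TFP controls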

Compound	inhibition
O=C(C[C@H]1C=C[C@@H](NC(=O)C2CC2)[C@@H](CO)O1)Nc1ccccc1	inconclusive: 82.1%
O=C(OCc1cccc(C(F)(F)F)c1)c1cc([N+](=O)[O-])ccc1N1CCOCC1	inconclusive: 75.1%
CCC(=O)Nc1ccc2c(c1)OC[C@@H](C)N(C(=O)CN(C)C)C[C@@H](C)[C@H](OC)CN(C)C2=O	inactive: 0.805%
CC(=NNC(=S)N1CCCCC1)c1cccc(C)n1	inconclusive: 83.8%
Cc1ccc(S(=O)(=O)Nc2ccc3c(c2)C(=O)N([C@@H](C)CO)C[C@@H](C)[C@@H](CN(C)Cc2ccc(Cl)c(Cl)c2)OCCCC[C@@H](C)O3)cc1	inconclusive: 151%
COc1ccc(CN(C)C[C@H]2OCCCC[C@@H](C)Oc3ccc(NS(=O)(=O)c4ccc(F)cc4)cc3C(=O)N([C@H](C)CO)C[C@H]2C)cc1	inconclusive: 153%
CC1CCN(Cc2cc(=O)oc3cc4c(cc23)CCCC4)CC1	inactive: 2.05%
C[C@H](CO)N1C[C@H](C)[C@@H](CN(C)C(=O)Nc2cccc3ccccc23)Oc2ccc(NC(=O)NC3CCCCC3)cc2C1=O	inconclusive: 82.8%
CO[C@@H]1CN(C)C(=O)c2cc(NC(=O)Nc3cccc(F)c3)ccc2OC[C@@H](C)N(C(C)=O)C[C@H]1C	inconclusive: 74.1%
Cc1ccccc1-c1ccc([C@H]2[C@@H](CO)N3CCCCN(Cc4cccnc4)C[C@H]23)cc1	inconclusive: 89.7%
COc1ccc(C(C)=O)cc1CC1(C)C(=O)Nc2ccc(-c3ccccc3OC)cc21 (centres undefined)	inactive: -0.181%
O=C(NCCCCc1ccccc1)c1cccc(NC(=O)c2ccccc2)c1	inconclusive: 109%
CCC(C)[C@H]1COCCS(=O)(=O)N1Cc1ccccc1 (some centres undefined)	inconclusive: 77.6%
COC(=O)[C@@H]1[C@@H](CO)[C@@H]2Cn3c(cccc3=O)[C@@H]2N1CC1CCOCC1	active: 87.6%
CN(C)c1ccc(C=Cc2nccc3ccccc23)cc1	active: 87.8%
CCOC(=O)C1=C(C)N(C[C@@H]2CC[C@@H](Cc3ccc(-c4ccccc4)cc3)O2)C(=O)NC1c1ccc(C(F)(F)F)cc1 (some centres undefined)	inactive: -2.2%
CC=Cc1ccc2n(c1=O)C[C@@H]1[C@@H](CO)[C@H](C(=O)NCCC)N(C(=O)CC)[C@H]21 (mixture of isomers)	inconclusive: 87.3%
Cc1noc(C)c1S(=O)(=O)N(C)C[C@@H]1OCCCC[C@H](C)Oc2ccc(NC(=O)C3CCCCC3)cc2C(=O)N([C@H](C)CO)C[C@H]1C	active: 111%
O=C(C[C@@H]1CC[C@@H]2[C@H](COC[C@@H](O)CN2S(=O)(=O)c2ccccc2)O1)NCCN1CCCCC1	inconclusive: 75.6%
Cc1cc2cc(CNC(=O)c3cccc([N+](=O)[O-])c3)ccc2n1C	inconclusive: 79.6%
CC1=Nc2ccccc2/C1=C\c1nc(-c2ccc(F)cc2)oc1O	inconclusive: 84.3%
C[C@@H]1CCCCO[C@@H](CN(C)CC2CCCCC2)[C@H](C)CN([C@@H](C)CO)C(=O)c2cc(NC(=O)c3ccccc3)ccc2O1	inconclusive: 122%
C[C@@H]1CN([C@@H](C)CO)S(=O)(=O)c2ccc(C#CC3(O)CCCC3)cc2O[C@H]1CN(C)C(=O)Cc1ccccc1	inconclusive: 96.3%

Compound	inhibition
COc1ccc(-c2ccccc2[C@H]2[C@@H](C#N)N(C(=O)NC3CCCC3)[C@H]2CO)cc1	inactive: -54.2%
C[C@H]1CN([C@@H](C)CO)C(=O)c2cccc(NS(=O)(=O)c3ccc(F)cc3)c2O[C@H]1CN(C)C(=O)Nc1ccc(C(F)(F)F)cc1	inactive: 1.35%
COc1ccc(NC(=O)Nc2ccc3c(c2)[C@@H]2C[C@H](CC(=O)NC4CCCCC4)O[C@H](CO)[C@@H]2O3)cc1	inactive: -2.44%
C[C@@H]1CN([C@@H](C)CO)S(=O)(=O)c2ccc(-c3cccc(C#N)c3)cc2O[C@H]1CN(C)Cc1ccccn1	inactive: -0.502%
C[C@H](CO)N1C[C@H](C)[C@H](CN(C)C)Oc2c(NC(=O)Nc3cccc4ccccc34)cccc2C1=O	inconclusive: 77%
C[C@@H]1CN([C@@H](C)CO)C(=O)c2ccccc2-c2ccccc2CO[C@H]1CN(C)Cc1ccccc1C(F)(F)F	inconclusive: 112%
CN(C)CCCN(C(=O)c1ccc2ccccc2c1)c1nc2cc3c(cc2s1)OCO3	inactive: -0.706%
OC(c1ccc(F)c(F)c1)c1nc(-c2ccccc2)cs1 (centres undefined)	inactive: -10.8%
CCOC(=O)N1CCC(N(CCOC)C(=O)Nc2ccc(Cl)cc2)CC1	inactive: 1.83%
Cc1ccc(NC(=O)Cn2cc(C(=O)C3CC3)c3ccccc32)c(C)c1	inactive: -2.31%
OC[C@H]1[C@H](c2ccc(C#CC3CCCC3)cc2)[C@@H]2CN(CCC(F)(F)F)CCCCN12	inconclusive: 70.6%
COc1ccc2c3c([nH]c2c1)[C@H](CO)N(S(C)(=O)=O)CC31CN(CC2CCOCC2)C1	active: 102%
C[C@@H]1CN([C@H](C)CO)C(=O)c2cc(C#CC3CCCCC3)cnc2O[C@H]1CN(C)C(=O)NC1CCCC1	inconclusive: 91.1%
CNS(=O)(=O)c1ccc2c(c1)[nH]c(=S)n2C	active: 82.4%
CCCNC(=O)N1C[C@@H]2[C@H](c3ccccc31)[C@@H](CO)N2C(=O)NC(C)C	inconclusive: 72.9%
CN(C)/C=C/C(=O)c1ccc([N+](=O)[O-])c(CS(=O)(=O)c2ccc(Cl)cc2)c1	inconclusive: 82.7%
C[C@@H]1CN([C@H](C)CO)S(=O)(=O)c2ccc(C#Cc3ccccc3)cc2O[C@H]1CN(C)C(=O)C1CC1	inactive: 9.97%
CCCCNC(=S)N(C)/N=C/c1ccc(OCC(=O)Nc2c(C)cc(C)cc2C)c(OC)c1	inactive: -3.03%
CCCN1[C@@H]2c3ccc(-c4ccncc4)c(=O)n3C[C@@H]2[C@@H](CO)[C@@H]1C(=O)NCCCN1CCOCC1	inconclusive: 98%
Cc1ccccc1S(=O)(=O)NCC[C@H]1CC[C@H](NC(=O)C2CCC2)[C@H](CO)O1	active: 102%
COc1ccc(NS(=O)(=O)c2cc(NC(=O)[C@H](C)NC(N)=O)ccc2N2CCCC2)cc1	inactive: -1.99%
C[C@H](CO)N1C[C@H](C)[C@@H](CN(C)S(C)(=O)=O)Oc2ncc(C#CC3CC3)cc2C1=O	inconclusive: 133%
Cc1ccccc1S(=O)(=O)N1CCCCN2[C@H](CO)[C@H](c3ccc(-c4ccccc4)cc3)[C@H]2C1	inactive: -3.36%

A different layout for part of the listing above:
Compound | inhibition
C[C@H]1CN([C@@H](C)CO)C(=O)c2cccc(NS(=O)(=O)c3ccc(F)cc3)c2O[C@H]1CN(C)C(=O)Nc1ccc(C(F)(F)F)cc1 | inactive: 1.35%
C[C@@H]1CN([C@@H](C)CO)S(=O)(=O)c2ccc(-c3cccc(C#N)c3)cc2O[C@H]1CN(C)Cc1ccccn1 | inactive: -0.502%
Cc1ccccc1S(=O)(=O)N1CCCCN2[C@H](CO)[C@H](c3ccc(-c4ccccc4)cc3)[C@H]2C1 | inactive: -3.36%

Carrying on:

Compound	inhibition
Cc1ccc(C)c(NS(=O)(=O)c2ccccc2C)c1	inactive: -3.79%
O=C(CC(F)(F)F)N1C[C@@H]2[C@H](c3ccccc31)[C@@H](CO)N2CC1CCOCC1	active: 90.1%
Cc1cc(C)c(C#N)c(SCS(=O)Cc2ccc(Cl)cc2)n1 (centres undefined)	inactive: -11.2%
CN1C(=O)c2cc(NC(=O)c3cccc(F)c3)ccc2OC[C@@H]2O[C@H](CC(=O)NCC3CCCCC3)CC[C@@H]21	inconclusive: 71.6%
C[C@H](CO)N1C[C@H](C)[C@H](CN(C)C(=O)c2ccc(F)cc2)Oc2cc(C3=CCCCC3)ccc2S1(=O)=O	inactive: 4.48%
COc1ccc(OC(C)C(=O)NCCC2=CCCCC2)cc1 (centres undefined)	inconclusive: 73.3%
CCC1CCC/C1=N\NC(=O)c1cc(C)[nH]n1 (centres undefined)	inconclusive: 75.4%
COc1ccc(-n2c(=O)[nH]cc(C(=O)Nc3ccc4c(c3)OCCO4)c2=O)cc1OC	inconclusive: 73.3%
CO[C@H]1CN(C)C(=O)c2cc(NC(=O)Nc3ccc4c(c3)OCO4)ccc2OC[C@@H](C)NC[C@@H]1C	active: 127%
Cc1c(CCO)c(=O)n2n1CCCC2	inconclusive: 126%
C[C@H]1CN([C@@H](C)CO)C(=O)c2cc(NS(C)(=O)=O)ccc2O[C@@H]1CN(C)C(=O)Nc1cccc2ccccc12	inactive: 5.99%
COc1ccccc1NC(=O)N1CCCCN2[C@H](C1)[C@@H](c1ccc(C#CC3CC3)cc1)[C@@H]2CO	active: 81.2%
CCOC(=O)N(C)c1c(CC)nc2c(OCc3cc(Cl)cc(Cl)c3)cccn12	inconclusive: 83.8%
C[C@@H]1CN([C@H](C)CO)C(=O)c2cc(/C=C/c3ccccc3)cnc2O[C@@H]1CN(C)C(=O)Nc1ccccc1F	inconclusive: -2.83%
CCC(=O)N1CCCCN2[C@H](CO)[C@@H](c3ccc(-c4ccc(F)cc4)cc3)[C@@H]2C1	inconclusive: 83.1%
COc1ccccc1-c1ccc2c(c1)[C@H]1[C@H](CCN1C(=O)C1CC1)[C@@H](CO)N2	inconclusive: 76.8%
CS(=O)(=O)N1[C@H](C#N)[C@H](c2ccccc2-c2ccc(F)cc2)[C@H]1CO	inconclusive: 72%
C[C@@H]1CN([C@@H](C)CO)C(=O)Cc2cc(NC(=O)Nc3ccc4c(c3)OCO4)ccc2O[C@@H]1CN(C)CC1CCCCC1	inconclusive: 113%
O=C(Nc1ccc2c(c1)OCO2)N[C@@H]1CC[C@@H](CCNC(=O)C2CCCC2)O[C@H]1CO	active: 89.8%
CC1CC(C)CN(CCOCCSc2ccccc2)C1 (centres undefined)	inconclusive: 73%
C[C@@H]1CN([C@H](C)CO)C(=O)c2cccc(NS(C)(=O)=O)c2O[C@@H]1CN(C)Cc1ccc(-c2ccccc2)cc1	inconclusive: 85.9%
C/C=C/c1ccc([C@H]2[C@H](CO)N3C(=O)CN(Cc4ccccc4)C[C@@H]23)cc1	inactive: -7.27%
CC(C)CC#Cc1ccc([C@@H]2[C@H]3CN(C(=O)c4cccc(F)c4)CC(=O)N3[C@H]2CO)cc1	inconclusive: 83.6%
